Measured values: publication PMC10202292, “The exquisite specificity of human protein arginine methyltransferase 7 (PRMT7) toward Arg-X-Arg sites” (PLOS ONE, 2023)
The structures given here were assigned with low confidence; some may be wrong.

Amino acid sequences for entries named in this document (tags omitted).
UniProt Q9NVM4, whole entry: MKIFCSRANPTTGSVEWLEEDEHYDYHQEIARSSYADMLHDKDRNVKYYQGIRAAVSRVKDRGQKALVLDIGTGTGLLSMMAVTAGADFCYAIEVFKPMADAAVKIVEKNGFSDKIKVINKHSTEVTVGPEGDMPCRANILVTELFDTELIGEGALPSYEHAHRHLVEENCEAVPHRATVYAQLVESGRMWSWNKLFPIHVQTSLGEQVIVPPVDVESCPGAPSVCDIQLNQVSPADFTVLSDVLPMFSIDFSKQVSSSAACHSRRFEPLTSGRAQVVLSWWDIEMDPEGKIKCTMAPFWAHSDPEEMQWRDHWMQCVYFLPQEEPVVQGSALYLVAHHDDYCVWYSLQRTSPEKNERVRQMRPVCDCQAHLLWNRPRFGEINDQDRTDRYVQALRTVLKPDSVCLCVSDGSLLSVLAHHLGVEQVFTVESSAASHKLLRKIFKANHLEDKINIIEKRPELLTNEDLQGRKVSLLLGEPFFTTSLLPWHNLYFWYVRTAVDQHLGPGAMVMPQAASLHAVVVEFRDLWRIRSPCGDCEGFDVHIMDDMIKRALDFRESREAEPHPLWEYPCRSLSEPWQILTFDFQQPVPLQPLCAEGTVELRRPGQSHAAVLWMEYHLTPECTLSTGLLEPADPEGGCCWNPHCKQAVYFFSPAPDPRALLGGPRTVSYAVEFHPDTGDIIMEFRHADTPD

biological target: GST-HsPRMT7 (Homo sapiens, UniProt Q9NVM4); assay: Michaelis-Menten kinetics of peptide substrate methylation (P81 phosphocellulose paper assay); parameters: key: Vmax expressed as cpm (averages of cycles 2–4); settings: + 130 mM KCl; 5 μg GST-HsPRMT7, 0.14 μM [3H]-AdoMet, 60 min, 25°C; GraphPad Prism fit
Method: In vitro methylation assays were performed with GST-HsPRMT7, the indicated substrate protein or peptide, and 1.4 μM S-adenosyl-L-[methyl-^3H]methionine ([^3H]-AdoMet; PerkinElmer cat no. NET155V), prepared from diluting a stock of 7.0 μM [^3H]-AdoMet (81.9 Ci/mmol, 1 mCi/mL in 9:1 10 mM H2SO4:EtOH, v/v) in 10 mM HCl. All reactions were performed using distilled water buffered with 50 mM potassium HEPES, pH 9.5 and 1 mM DTT, reaching a final reaction volume of 30 μL. The reactions were initiated by adding [^3H]-AdoMet to a final concentration of 0.14 μM. Control reactions (enzyme-only, substrate-only) contained distilled water instead of substrate or GST-HsPRMT7, respectively. After initiation with [^3H]-AdoMet, all reactions analyzed via P81 phosphocellulose filter paper assay were incubated in a water bath at 25°C unless otherwise indicated for the specified time periods and were terminated with 0.5 μL 100% (w/v) trifluoroacetic acid (TFA). P81 assays performed at t = 0 were individually terminated immediately following initiation. Samples analyzed via SDS-PAGE were incubated at 4°C for 24 hours and were quenched by adding 5x SDS sample loading buffer (250 mM Tris-HCl, pH 6.8; 10% SDS, 30% glycerol, 10% β-mercaptoethanol, 0.2% bromophenol blue), followed by heating at 97°C for 3 min.
In vitro methylation assays with GST-HsPRMT7, selected methyl-accepting substrates, and [^3H]-AdoMet were set up as described previously and performed in triplicate. Following incubation at 25°C unless otherwise indicated for the time periods specified, all samples were quenched with 0.5 μL 100% TFA and centrifuged at 9,300 g for 10 seconds in an Eppendorf centrifuge (Model 5417C). 1 cm^2 pieces of P81 phosphocellulose filter paper (LabAlley catalog no. 05-717-2A) were spotted with 25 μL from each reaction mixture and set to dry overnight. The following day, all filter paper pieces were washed three times with 50 mM sodium bicarbonate solution, pH 9.0, and dried again in liquid scintillation vials. After 5 mL of Safety Solve fluor (RPI industries) was added to each vial, [^3H] radioactivity in each sample was quantified via liquid scintillation counter (Beckman LS6500) for four total cycles at 5 minutes per sample. All data presented are expressed as averages of the cpm from cycles 2–4.
Statistical analyses were performed using the “Analyze Data” function on GraphPad Prism v.8.0.1. To determine statistical significance, unpaired homoscedastic two-tailed Student’s t tests were performed with significance level α = 0.05 with the relevant data. To obtain apparent km and Vmax values, kinetic data were analyzed by non-linear regression using the Michaelis-Menten equation.

Substance | Vmax, Michaelis-Menten best-fit value, Fig8
Ac-KKGGRGGGGKKY-NH2 | 165.4
Ac-KKGGRGRGGKKY-NH2 | 821.7
Ac-KKGGRGRKGKKY-NH2 | 403.6
Ac-KKGGRKRGGKKY-NH2 | 875.5

Results, then the substance that gave them:

Vmax, Michaelis-Menten best-fit value, Fig8 | Substance
15717 | Ac-KKDGKKRKRSRKESY-NH2
99.03 | Ac-KKGGRERGGKKY-NH2
554.1 | Ac-KKGKRGRGGKKY-NH2
